These are yes or no findings as the source states them, for the method shown. Some results given as binding are weak or reduced against the parent protein; the word gives no strength.
B1: Mtb NusA (labelled) (protein, UniProt P9WIV3 1-347)
chain: MNIDMAALHAIEVDRGISVNELLETIKSALLTAYRHTQGHQTDARIEIDRKTGVVRVIARETDEAGNLISEWDDTPEGFGRIAATTARQVMLQRFRDAENERTYGEFSTREGEIVAGVIQRDSRANARGLVVVRIGTETKASEGVIPAAEQVPGESYEHGNRLRCYVVGVTRGAREPLITLSRTHPNLVRKLFSLEVPEIADGSVEIVAVAREAGHRSKIAVRSNVAGLNAKGACIGPMGQRVRNVMSELSGEKIDIIDYDDDPARFVANALSPAKVVSVSVIDQTARAARVVVPDFQLSLAIGKEGQNARLAARLTGWRIDIRGDAPPPPPGQPEPGVSRGMAHDR
B2: TMR-labelled Mtb σ^F (wild type, labelled at the natural cysteine, residue 47 of σ2) (protein, UniProt P9WGI3 1-261)
chain: MTARAAGGSASRANEYADVPEMFRELVGLPAGSPEFQRHRDKIVQRCLPLADHIARRFEGRGEPRDDLIQVARVGLVNAAVRFDVKTGSDFVSFAVPTIMGEVRRHFRDNSWSVKVPRRLKELHLRLGTATADLSQRLGRAPSASELAAELGMDRAEVIEGLLAGSSYHTLSIDSGGGSDDDARAITDTLGDVDAGLDQIENREVLRPLLEALPERERTVLVLRFFDSMTQTQIAERVGISQMHVSRLLAKSLARLRDQLE

Chains of the proteins cited; added tags and fusions are not shown. Lines headed by an entry give the natural chain unless they say otherwise; changes in a name come on top.
UniProt P9WGZ1: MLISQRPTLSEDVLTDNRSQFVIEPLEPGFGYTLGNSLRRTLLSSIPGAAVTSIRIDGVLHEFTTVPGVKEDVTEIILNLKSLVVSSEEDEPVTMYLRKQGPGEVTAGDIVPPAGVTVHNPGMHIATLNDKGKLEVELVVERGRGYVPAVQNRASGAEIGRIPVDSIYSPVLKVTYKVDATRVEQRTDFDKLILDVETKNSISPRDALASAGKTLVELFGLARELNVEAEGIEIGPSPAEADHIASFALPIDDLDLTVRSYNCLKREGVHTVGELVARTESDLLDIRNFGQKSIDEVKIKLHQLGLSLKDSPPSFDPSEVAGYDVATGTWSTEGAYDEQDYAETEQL

Biological target: Mycobacterium tuberculosis RNA polymerase core (α2ββ'ω), wildtype (Mycobacterium tuberculosis) (UniProt P9WGZ1)
Test: native gel or EMSA; both purified

Row | Binder | binding
1 | B1 | binds
2 | B2 | binds

Source: publication PMC12781872
